Reference: article PMC6545562, “Slx5/Slx8‐dependent ubiquitin hotspots on chromatin contribute to stress tolerance” (The EMBO Journal, 2019)
Results are given in words; binding and its absence hold for the method and conditions named. Binding seen in cells or lysates may run through a third protein. Some binding calls cover weakened binding; strength is not graded here. Tags and fused reporters may be left off the sequences shown.

Legend:
Assay in all cases: co-IP; native lysates of euc1∆ yeast expressing 3FLAG-Euc1 constructs from plasmids (EUC1 promoter); anti-FLAG beads (M2); eluates blotted for Slx5; also in the slx8-CD strain
[1] = biological target: T1, 3FLAG-Euc1-KR (K231R) (S. cerevisiae) (UniProt Q04461)
T1 sequence: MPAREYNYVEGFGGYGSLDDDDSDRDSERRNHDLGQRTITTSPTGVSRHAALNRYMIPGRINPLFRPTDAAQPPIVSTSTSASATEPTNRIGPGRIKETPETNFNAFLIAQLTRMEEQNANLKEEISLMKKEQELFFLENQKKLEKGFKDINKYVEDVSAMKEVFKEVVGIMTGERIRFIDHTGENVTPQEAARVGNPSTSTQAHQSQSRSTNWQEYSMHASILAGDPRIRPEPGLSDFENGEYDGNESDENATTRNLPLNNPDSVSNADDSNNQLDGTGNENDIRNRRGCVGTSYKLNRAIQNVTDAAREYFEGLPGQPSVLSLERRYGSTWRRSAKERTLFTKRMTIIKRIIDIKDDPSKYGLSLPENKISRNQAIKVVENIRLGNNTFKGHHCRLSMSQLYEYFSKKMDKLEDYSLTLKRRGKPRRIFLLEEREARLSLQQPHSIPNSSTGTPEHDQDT

[2] = biological target: T2, 3FLAG-Euc1-DBD* (W333A, R334A) (S. cerevisiae) (UniProt Q04461)
T2 sequence: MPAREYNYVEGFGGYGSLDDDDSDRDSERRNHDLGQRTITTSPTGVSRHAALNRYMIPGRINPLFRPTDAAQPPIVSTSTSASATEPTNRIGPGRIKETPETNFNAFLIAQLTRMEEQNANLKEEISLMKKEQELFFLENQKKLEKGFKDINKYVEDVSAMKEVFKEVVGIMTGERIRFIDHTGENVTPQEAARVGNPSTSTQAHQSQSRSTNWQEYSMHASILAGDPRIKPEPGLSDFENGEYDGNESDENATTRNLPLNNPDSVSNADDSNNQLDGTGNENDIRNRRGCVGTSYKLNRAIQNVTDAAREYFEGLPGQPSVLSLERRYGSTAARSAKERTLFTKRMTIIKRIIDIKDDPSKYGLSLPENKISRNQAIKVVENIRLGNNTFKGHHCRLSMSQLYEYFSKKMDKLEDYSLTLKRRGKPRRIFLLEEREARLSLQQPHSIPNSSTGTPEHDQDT

[3] = biological target: T3, 3FLAG-Euc1 (wild type) (S. cerevisiae) (UniProt Q04461)
T3 sequence: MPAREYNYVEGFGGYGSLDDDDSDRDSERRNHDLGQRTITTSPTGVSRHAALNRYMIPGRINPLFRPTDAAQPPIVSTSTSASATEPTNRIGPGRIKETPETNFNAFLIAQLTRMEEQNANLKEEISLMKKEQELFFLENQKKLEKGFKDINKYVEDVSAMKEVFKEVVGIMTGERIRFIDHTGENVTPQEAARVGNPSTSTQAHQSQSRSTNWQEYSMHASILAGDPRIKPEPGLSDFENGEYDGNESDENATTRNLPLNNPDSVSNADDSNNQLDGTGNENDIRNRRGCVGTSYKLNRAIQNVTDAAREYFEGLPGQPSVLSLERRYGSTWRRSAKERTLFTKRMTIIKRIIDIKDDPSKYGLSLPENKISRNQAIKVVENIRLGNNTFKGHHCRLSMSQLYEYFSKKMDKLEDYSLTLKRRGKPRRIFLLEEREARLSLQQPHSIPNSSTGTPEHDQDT

Measured: binding

B1: Slx5, endogenous (protein, UniProt P32828 1-619)
chain: MHSDTNGRTKSNNSPSDNNPNETVILIDSDKEEDASIREANLPVRLYPDRRVGRRRDALNRFVRSDSRSRNSQRTHITASSERPDFQANNDDITIIREVGRFFGDDGPIDPSAHYVDLDQEPGSETLETPRTIQVDNTNGYLNDNGNNNESDDGLTIVEERTTRPRVTLNLPGGERLEVTATTTDIPIRRSFEFQEDLGASRRQLLRRSATRARNLFVDRSDENDEDWTDDTHNLPEAIQRARRESRMRMSRRIAERQRRVQQQRVSSDENISTSIRLQSIRERIQSYTPDIRSAFHRAESLHEFRSILQNVAPITLQECEEELMALFTEFRNQLLQNWAIDRVRNTQEEALRLHREALERQERTAGRVFHRGTLRESITNYLNFNGEDGFLSRLWSGPALSDADEERHTQNIIDMIQEREERERDVVMKNLMNKTRAQQEEFEARAASLPEGYSASFDTTPKMKLDITKNGKEETIIVTDDDLAKTLEDIPVCCLCGAELGVGIPDDFTGISQKDRGVSFEGLVSKYKFHCPYQTLARPSMLDRDLSKRTFIASCGHAFCGRCFARIDNAKKKSKMPKKKLAQLKGSAHPDNYGPKLCPADSCKKLIRSRGRLKEVYF
binds: all assays above
